For experiment [1], the target named is T1, Murine Nectin-4 (mouse) (UniProt Q8R007).
T1 sequence: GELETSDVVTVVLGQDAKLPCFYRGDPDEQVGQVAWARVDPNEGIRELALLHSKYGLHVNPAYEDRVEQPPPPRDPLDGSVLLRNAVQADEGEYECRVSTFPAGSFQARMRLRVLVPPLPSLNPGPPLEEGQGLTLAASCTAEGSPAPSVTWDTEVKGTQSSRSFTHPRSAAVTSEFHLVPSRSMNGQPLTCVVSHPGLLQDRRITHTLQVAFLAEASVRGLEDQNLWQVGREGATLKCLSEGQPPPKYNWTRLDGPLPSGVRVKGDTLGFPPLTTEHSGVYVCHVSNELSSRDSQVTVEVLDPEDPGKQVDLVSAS
The experiment is described as follows: SPR (Biacore), Nectin-4 amine-coupled to the chip, miniprotein flowed as analyte, 1:1 binding model, 25 C. (In general: In SPR one partner is held on a chip, and binding of the other changes the refractive index at the surface.)

Experiment [2] has as its target Human Nectin-4 (human) (UniProt Q96NY8). The experiment is described as above.
The target of experiment [3] is T1, Murine Nectin-4 (mouse). Kind of experiment: SPR sensorgrams.
The target in experiment [4] is Human Nectin-4 (human) (UniProt Q96NY8). Kind of experiment: SPR sensorgrams.
The target of experiment [5] is T1, Murine Nectin-4 (mouse). Kind of experiment: SPR (Biacore), Nectin-4 on the chip, 138La-DOTA-PEG4 miniprotein conjugate flowed as analyte, 1:1 binding model, 25 C.
For experiment [6], the target named is Human Nectin-4 (human) (UniProt Q96NY8). The experiment is described as above.
Experiment [7] addresses T1, Murine Nectin-4 (mouse). Kind of experiment: SPR (Biacore), Nectin-4 amine-coupled to the chip, miniprotein conjugate flowed as analyte, 1:1 binding model, 25 C.
The target of experiment [8] is Human Nectin-4 (human) (UniProt Q96NY8). The description is as above.
The target of experiment [9] is Human Nectin-4 expressed on cells (human) (UniProt Q96NY8). Kind of experiment: DELFIA whole-cell assay.

These are yes or no findings as the source states them, for the method shown. Some results given as binding are weak or reduced against the parent protein; the word gives no strength.

In the case of CEYDEEFFAGLKRLRGGDICYYIKKKFDKVPDLCIEEILDKLGC (designed binder, N-term acetyl) [C9], the binding result with Murine Nectin-4 (mouse) [1], with Human Nectin-4 (human) [2], with Murine Nectin-4 (mouse) [3] and with Human Nectin-4 (human) [4] was “binds” throughout.
For CEYDEEFFAGLKRLRGGDICYYIKKKFDKVPDLCIEEILDKLGC (designed binder, N-term 138La-DOTA-PEG4) [C91], the binding entry with Murine Nectin-4 (mouse) [5], in the experiment with Human Nectin-4 (human) [6], in the experiment with Murine Nectin-4 (mouse) [3] and with Human Nectin-4 (human) [4] was “binds” in each case.
For CEYDEEFFAGLKRLRGGDICYYIKKKFDKVPDLCIEEILDKLGC (designed binder, N-term DOTA-PEG4) [C12], the binding result with Murine Nectin-4 (mouse) [7], with Human Nectin-4 (human) [8], with Murine Nectin-4 (mouse) [3] and in the experiment with Human Nectin-4 (human) [4] was “binds” throughout.
Consider CEYDEEFFTALKRLRGGDICQYIQAKFQYLPALCIEEILDNLGCS (designed binder, N-term Biotin-PEG4; Kme at 12; Kme3 at 26) [C302], for which the binding result in experiment [9] is listed as “binds”.
As to CEYDEEFFTALKRLRGGDICQYIQAKFQYLPALCIEEILDNLGCS (designed binder, N-term Biotin-PEG4; Kme2 at 12; Kme3 at 26) [C303], the binding result in [9] is “binds”.
With CEYDEEFFTALKRLRGGDICQYIQAKFQYLPALCIEEILDNLGCS (designed binder, N-term Biotin-PEG4; Kipr at 12; Kme3 at 26) [C304], in [9], the binding result is on record as “binds”.

For the origin of these results see patent US20260151519A1.
